Measured values reported in paper PMC10086748.
Results are given in words; binding and its absence hold for the method and conditions named. In cells and extracts the contact can be indirect. Some entries that bind do so weakly or less than the wild type. Tags and fused reporters may be left off the sequences shown.

Molecular target: T1, CD151-Flag (UniProt P48509)
T1 sequence: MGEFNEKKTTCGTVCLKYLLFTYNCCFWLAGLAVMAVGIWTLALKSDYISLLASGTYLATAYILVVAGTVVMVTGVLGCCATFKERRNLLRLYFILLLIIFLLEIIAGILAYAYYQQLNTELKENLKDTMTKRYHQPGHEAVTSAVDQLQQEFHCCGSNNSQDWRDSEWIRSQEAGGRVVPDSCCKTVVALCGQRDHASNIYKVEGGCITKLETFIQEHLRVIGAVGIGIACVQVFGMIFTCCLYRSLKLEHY
Experiment: co-IP; HEK-293 cells transfected simultaneously with CD151-Flag, integrin α6-His, integrin β1-HA and integrin β4-HA; lysis in 20 mM Tris pH 7.5, 150 mM NaCl, 1% Triton X-100, 1 mM EDTA with protease inhibitors; incubated with anti-Flag, anti-His, anti-HA overnight at 4 °C; Dynabeads Protein G; western blotting

B1: integrin α6-His (protein, UniProt P23229 24-1130)
chain: FNLDTREDNVIRKYGDPGSLFGFSLAMHWQLQPEDKRLLLVGAPRAEALPLQRANRTGGLYSCDITARGPCTRIEFDNDADPTSESKEDQWMGVTVQSQGPGGKVVTCAHRYEKRQHVNTKQESRDIFGRCYVLSQNLRIEDDMDGGDWSFCDGRLRGHEKFGSCQQGVAATFTKDFHYIVFGAPGTYNWKGIVRVEQKNNTFFDMNIFEDGPYEVGGETEHDESLVPVPANSYLGLLFLTSVSYTDPDQFVYKTRPPREQPDTFPDVMMNSYLGFSLDSGKGIVSKDEITFVSGAPRANHSGAVVLLKRDMKSAHLLPEHIFDGEGLASSFGYDVAVVDLNKDGWQDIVIGAPQYFDRDGEVGGAVYVYMNQQGRWNNVKPIRLNGTKDSMFGIAVKNIGDINQDGYPDIAVGAPYDDLGKVFIYHGSANGINTKPTQVLKGISPYFGYSIAGNMDLDRNSYPDVAVGSLSDSVTIFRSRPVINIQKTITVTPNRIDLRQKTACGAPSGICLQVKSCFEYTANPAGYNPSISIVGTLEAEKERRKSGLSSRVQFRNQGSEPKYTQELTLKRQKQKVCMEETLWLQDNIRDKLRPIPITASVEIQEPSSRRRVNSLPEVLPILNSDEPKTAHIDVHFLKEGCGDDNVCNSNLKLEYKFCTREGNQDKFSYLPIQKGVPELVLKDQKDIALEITVTNSPSNPRNPTKDGDDAHEAKLIATFPDTLTYSAYRELRAFPEKQLSCVANQNGSQADCELGNPFKRNSNVTFYLVLSTTEVTFDTPDLDINLKLETTSNQDNLAPITAKAKVVIELLLSVSGVAKPSQVYFGGTVVGEQAMKSEDEVGSLIEYEFRVINLGKPLTNLGTATLNIQWPKEISNGKWLLYLVKVESKGLEKVTCEPQKEINSLNLTESHNSRKKREITEKQIDDNRKFSLFAERKYQTLNCSVNVNCVNIRCPLRGLDSKASLILRSRLWNSTFLEEYSKLNYLDILMRAFIDVTAAAENIRLPNAGTQVRVTVFPSKTVAQYSGVPWWIILVAILAGILMLALLVFILWKCGFFKRSRYDDSVPRYHAVRIRKEEREIKDEKYIDNLEKKQWITKWNENESYS
  binding: binds
